In PMC11957393:
Results are given in words; binding and its absence hold for the method and conditions named. For part of these data: Binding seen in cells or lysates may run through a third protein. Some binding calls cover weakened binding; strength is not graded here. For part of these data: Tags and fused reporters may be left off the sequences shown.

Key:
[1] = target: chicken MyD88, Flag-tagged (Flag-MyD88), expressed in HD11 cells (chicken) (UniProt A5HNF6); assay: co-IP; HD11 cells co-transfected with Flag-MyD88, HA-MyD88 (1.5 ug each) and increasing doses of Myc-VP2 (0, 0.7, 1.5 ug) for 24 h; immunoprecipitated by the Flag tag, blotted for HA, Flag and Myc tags
[2] = target: endogenous MyD88 of HD11 chicken macrophage cells (chicken (endogenous in HD11)) (UniProt A5HNF6); assay: native gel or EMSA; HD11 lysates (native lysis buffer) after HA-VP2 transfection, vvIBDV or HT infection or LPS; native PAGE and immunoblot with anti-MyD88
[3] = target: endogenous MyD88 of HD11 chicken macrophage cells (chicken (endogenous in HD11)) (UniProt A5HNF6); assay: co-IP; HD11 cells infected with vvIBDV (1x10^10 copies/1x10^6 cells) for 24 h; lysates immunoprecipitated and blotted with anti-MyD88 antibody

Binder | binding [1] | binding [2] | binding [3]
chicken MyD88, Flag-tagged (Flag-MyD88), expressed in HD11 cells (protein, UniProt A5HNF6 1-299) MATVPVGAGSAPGPEPADLHSVPMVALNYGVRRRLGLYLNPRAATAADWTALAEKLGHDYLEIRRLEALPDPTAALLEEWQSRCPGGATVGQLLELLRQLGRHDVLLELGGSVEEDCKKYLRRKQQEAEQPLQVPAVDSSVPKTSELMGITTRDDPYGHGTEMFDAFICYCQKDLQFVQEMIRELEQTEFKLKLCVFDRDVLPGTCVWSISGELIERRCRRMVVVISDDYLESDECDFQTKFALSLSPGARLKRLIPVKCKTMKNEFPSILRFITICDYTNPCTKKWFWTRLAKSLLLP | binds | – | –
endogenous MyD88 of HD11 chicken macrophage cells (protein, UniProt A5HNF6 1-299) MATVPVGAGSAPGPEPADLHSVPMVALNYGVRRRLGLYLNPRAATAADWTALAEKLGHDYLEIRRLEALPDPTAALLEEWQSRCPGGATVGQLLELLRQLGRHDVLLELGGSVEEDCKKYLRRKQQEAEQPLQVPAVDSSVPKTSELMGITTRDDPYGHGTEMFDAFICYCQKDLQFVQEMIRELEQTEFKLKLCVFDRDVLPGTCVWSISGELIERRCRRMVVVISDDYLESDECDFQTKFALSLSPGARLKRLIPVKCKTMKNEFPSILRFITICDYTNPCTKKWFWTRLAKSLLLP | – | binds | binds
